Data set [1] can be described thus: general procedure: Boc solid-phase peptide synthesis; Boc-Tyr(2-BrZ)-PAM resin. The following applies: whole synthesis, scale 0.5 mmol.
The nature of data set [2]: general procedure: Boc solid-phase peptide synthesis; PAM resin (Boc-Tyr-(2-Bromobenzyloxycarbonyl)-PAM resin). As to conditions: whole synthesis, scale of the general procedure 0.5 mmol.

Strings that start with PEPTIDE1 are HELM notation: dots part the residues, brackets hold end groups and non-standard residues.

The substance “PEPTIDE1{S.L.R.R.S.S.C.F.G.G.R.I.D.R.I.G.A.Q.S.G.L.G.C.N.S.F.R.Y}$PEPTIDE1,PEPTIDE1,7:R3-23:R3$$$V2.0” displayed a crude mass in data set [1] of 0.3 g. Besides, the “final HPLC purity” value is recorded as 98.3% in data set [2] (HPLC peak area ratio) and “about 95%” in data set [2] (HPLC, ratio of peak area to total peak area).

The record behind these values is US5204327A (Ashi Kasei Kogyo Kabushiki Kaisha, priority 1988, dated 1993).
